In experiment [1] the target is acidic human fibroblast growth factor (hFGF1) (human) (UniProt P05230). The experiment in a line: SEC. Background: Size exclusion chromatography separates by hydrodynamic size, large species first.
The target is the same in experiment [2]. The experiment in a line: condition: only non-heat-treated, room temperature.

By UniProt entry, the sequences of proteins in these tests, tags left out. Where a name states a change or a piece, a line headed by the entry shows the natural chain unless it says otherwise.
UniProt P05230: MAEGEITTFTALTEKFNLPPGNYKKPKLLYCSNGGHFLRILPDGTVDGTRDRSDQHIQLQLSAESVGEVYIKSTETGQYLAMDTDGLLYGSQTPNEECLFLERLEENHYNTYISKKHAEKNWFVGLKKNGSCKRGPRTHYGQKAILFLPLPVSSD

No constants are given. Whether binding was seen depends on the method and setting. For some assays here: Binding calls can cover weak binding; strength is not graded here.

The values below come from doi:10.1101/2019.12.24.888255.

For “chloroplast signal recognition particle 43-kDa subunit (cpSRP43) (from UniProt O22265 57-373)”, the binding entry was “binds weakly” in experiment [1] and “no binding” in experiment [2].
